Results reported in paper doi:10.1101/431023.
Results are given in words; binding and its absence hold for the method and conditions named. Binding seen in cells or lysates may run through a third protein. A yes stands for co-enrichment or nearness to the bait. Other partners may have been found. Sequences can lack the tags named with a protein. Values belong to the binder of their own block, whether it stands above or below them.

Columns and labels:
[1] = molecular target: T1, dox-inducible 3xFLAG-BirA*-tagged TCF7L1 in the Rosa26 locus (UniProt Q9Z1J1); assay: proximity labelling
T1 sequence: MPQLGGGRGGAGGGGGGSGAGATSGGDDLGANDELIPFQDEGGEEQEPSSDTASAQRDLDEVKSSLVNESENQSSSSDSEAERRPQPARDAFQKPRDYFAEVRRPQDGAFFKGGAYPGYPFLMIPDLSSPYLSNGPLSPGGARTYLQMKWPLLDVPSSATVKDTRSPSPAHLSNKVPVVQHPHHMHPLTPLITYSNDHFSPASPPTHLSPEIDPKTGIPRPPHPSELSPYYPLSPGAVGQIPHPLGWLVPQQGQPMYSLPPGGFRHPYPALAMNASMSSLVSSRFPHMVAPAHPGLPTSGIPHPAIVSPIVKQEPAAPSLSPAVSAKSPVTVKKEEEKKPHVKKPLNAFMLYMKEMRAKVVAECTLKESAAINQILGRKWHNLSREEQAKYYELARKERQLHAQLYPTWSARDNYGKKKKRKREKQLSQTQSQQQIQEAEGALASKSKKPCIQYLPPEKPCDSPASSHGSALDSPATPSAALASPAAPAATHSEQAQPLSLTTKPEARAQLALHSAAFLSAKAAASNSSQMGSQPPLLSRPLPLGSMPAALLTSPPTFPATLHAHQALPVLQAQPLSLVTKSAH

[2] = molecular target: T2, 3xFLAG-BirA*-tagged TCF7L1 at the endogenous TCF7L1 locus (mouse (endogenous in mESCs)) (UniProt Q9Z1J1); assay: proximity labelling
T2 sequence: T1 sequence

B1: ARID3B (protein, UniProt Q9Z1N7 1-568)
chain: MEPLQQQQQQQQQKQPQQPLLQMDAREKQGPQTRESQFLYASKLGTQPALLSITPGRPSGSSVLGPLARVPPATPVARMSEQSNVNSEPEEEEGGLEDEDGDDDVAEVAEKEAQAASKYFHMQKVTRQEPRATPMSSLLPVPGLSPQGQQTKEDHTKDASKAPPSVPTAGQPSWSLDEQLKQNGALAWSDDADGGRGREISRDFAKLYELDGDPERKEFLDDLFIFMQKRGTPINRIPIMAKQILDLYMLYKLVTEKGGLVEIINKKIWREITKGLNLPTSITSAAFTLRTQYMKYLYAYECEKKALSSPAELQAAIDGNRREGRRPSYSSSLFGYSPAAAAAAAAAAAAAAASAASAGTPALLSSPKIRFSILGLGSSSGTSASSPRIPPASTLRKGDGVPVPVPNRLAVSGTLAGQQAGNRPGPLEHLRERLESGEPPEKKASRLSEEEQRLVQQAFQRNLFSMARQLPMKIRINGREDRAEPSAPALNLTTSNIGSINMSVDIDGTTYTGVLFAQKPVVHLIAGSTPQSIGSSASSSNSSSSHCSPSPTSSRGTPSAEPSTSWSL
binding [1]: binds | binding [2]: binds

B4: SALL1 (protein, UniProt Q9ER74 1-1322)
chain: MSRRKQAKPQHFQSDPEVASLPRRDGDTEKGQPSRPTKSKDAHVCGRCCAEFFELSDLLLHKKSCTKNQLVLIVNESPASPAKTFPPGPSLNDPDDQMKDAANKADQEDCSDLSEPKGLDREESMEVEVPVATTTTTTTGGSGGSGGSTLSGVTNITTPSCHSGCSSGTSAITTSLPQLGDLTTLGNFSVINSNVIIENLQSTKVAVAQFSQEARCGGASGGKLLISTLMEQLLALQQQQIHQLQLIEQIRHQILLLASQSADLPAAPSIPSQGTLRTSANPLTTLSSHLSQQLAVAAGLAQSLASQSANISGVKQLPHVQLPQSSSGTSIVPPSGGTSPNMSIVTAAVPTPSSEKVASNAGASHVSSPAVSASSSPAFAISSLLSPESNPLLPQPTPANAVFPTPLPNIATTAEDLNSLSALAQQRKSKPPNVTAFEAKSTSDEAFFKHKCRFCAKVFGSDSALQIHLRSHTGERPFKCNICGNRFSTKGNLKVHFQRHKEKYPHIQMNPYPVPEHLDNVPTSTGIPYGMSIPSEKPVTSWLDTKPVLPTLTTSVGLPLPPTLPSLTPFIKTEEPAPIPISHSAASPQGSVKSDSGAPDLATRNPSGVPEEVEGSAVPPFGGKGEESNMASSAVPTAGNSTLNSPVADGGPGGTTFTNPLLPLMSEQFKAKFPFGGLLDSAQASETSKLQQLVENIDKKATDPNECIICHRVLSCQSALKMHYRTHTGERPFKCKICGRAFTTKGNLKTHYSVHRAMPPLRVQHSCPICQKKFTNAVVLQQHIRMHMGGQIPNTPVPDNYPESMESDTGSFDEKNFDDLDNFSDENMEECPEGSIPDTPKSADASQDSLSSSPLPLEMSSIAALENQMKMINAGLAEQLQASLKSVENGSMEGDVLTNDSSSVGGDMESQSAGSPAISESTSSMQALSPSNSTQEFHKSPGMEEKPQRVGPGEFANGLSPTPVNGGALDLTSSHAEKIIKEDSLGILFPFRDRGKFKNTACDICGKTFACQSALDIHYRSHTKERPFICTVCNRGFSTKGNLKQHMLTHQMRDLPSQLFEPSSNLGPNQNSAVIPANSLSSLIKTEVNGFVHVSPQDSKDAPTSHVPQGPLSSSATSPVLLPALPRRTPKQHYCNTCGKTFSSSSALQIHERTHTGEKPFACTICGRAFTTKGNLKVHMGTHMWNSTPARRGRRLSVDGPMTFLGGNPVKFPEMFQKDLAARSGSGDPSSFWNQYTAALSNGLAMKANEISVIQNGGIPPIPGSLGSGSSPISGLTGNVEKLGNSEPSAPLAGLEKMASSENGTNFRFTRFVEDSKEIVTS
binding [1]: binds | binding [2]: binds

B5: ASXL Transcriptional Regulator 2 (ASXL2) (protein, UniProt Q8BZ32 1-1370)
chain: MREKGRRKKGRTWAEAAKTVLEKYPNTPMSHKEILQVIQREGLKEIRSGTSPLACLNAMLHTNSRGEEGIFYKVPGRMGVYTLKKDVPDGVKELSECSEESSDGQSDSHSSDNSSSSDGGSNKEGRKSRWKRKVSSRLSHPPSPPSGCPSPTIPASKVISPSQKHSKKALKQALKQQQQKKKQQQCRPSMSISNQHLSLKTVKAASDSVPAKPGQMKRTKCADIDVETPDSILVNTNLRALINKHTFSVLPGDCQQRLLLLLPEVDRQVGPDGLMKLNGSALNNEFFTSAAQGWKERLSEGEFTPEMQVRIRQEIEKEKKVELWKEQFFENYYGQSSGLSLEDSQKLTASSSDPKAKKTPAEQPKSILPSEASPVRIVPVVPQSECKEEAVQIPSPSQKEENQDEARPDSKSPEPVLASASNTNELITMKPIKSPKDEGLLEQKPVACAEQESEKENHVTTTSRNNKSENQEALAISPSKSKNAGLQKPIIKPVAEASPLNPDMKMPPATVTDQIQESLKRKSSLTDEEATSSWEKRPRITENRQHQQPFQVSPQPFLNRGDRVQVRKVPPLKIPVSRISPMLFSTSQVSPRARFPISITSPYRTGARTLADIKAKAQLVEAQKAAAAAAAAAAAAASVGGTIPGPGPGGGQSPREGGERKIAGGGSAGSDPVSTNGKGPTLELAGTGSRGGTRELLPCGPQPETNMPGQAQPPGISGAQLQQTSSVPTGLASSGACTSVPLPAHIEISNSEKPNLHKATATAASPCHLQDPRSCRLEKALSPTGPPLISGASTVYFVADGTVEPKAGSNKNAPKPSALAKTTAPAPLDMTSSPVTTASLEKLPVPQISGTATSTGSAPSSSTLPAASSLKTPGTSANMNGPISRTSSSIPANNPLVTQLLQGKDVPLEQILPKPLTKIEMKTVPLTTKEEKGIGIFPGISVMESSSREEVNGRQAHLAIPQLGKPLQSKQLSQVPRPVFTAKDRKDPCIDTHQYREGLSKTTQDQLFQTLIQRAQRQSVLSFVPPSQFNFAHSGFHLEDISTSQKFMLGFAGRRTSKPAMAGHYLLNISTYGRGTENIKRTHSVNPDDRFCLSSPTEALRMGHADYKNTTGEISSKEDESDEDRVGDEQEPISVKEEPWASQSSGRHPHHGEASSTNDCLASKNGKTEAPVSEQTTLGQENYIFSRGQASDEKSLPRDFIPAAHKQMTHAVRGKTVCSSPELFNSTALSLPADSPTHQPLLLPPLQTPKLYGSPTQIGPSYRGMINVSTSSDMDHNSAIPGSQVSSNVGDVMSFSVTVTTIPASQAMNPSSHGQTIPVQTFPDDNSIEDTPSKCYCRLKAMIMCKGCGAFCHDDCIGPSKLCVSCLVVR
binding [1]: binds | binding [2]: binds

The remaining lines, values ahead:

binding [1]: binds | binding [2]: binds
B2: Lysine demethylase 1B (KDM1B) (protein, UniProt Q8CIG3 1-826)
chain: MAASRGRSKKRSNLELSPDNLPLRSSGRQAKKKAVEIPDEDEDGSSEKKYRKCEKAGCTAAYPVCFASASERCAKNGYTSRWYHLSCGEHFCNECFDHYYRSHKDGYDKYSAWKRVWTSNGKTEPSPKAFMADQQLPYWVQCTKPECGKWRQLTKEIQLTPHMARTYRCGMKPNTITKPDTPDHCSFPEDLRVLEVSNHWWYPMLIQPPLLKDSVAAPLLSAYYPDCVGMSPSCTSTHRATVTAATTTTGSASPGEMEPSKAAPSSLVLGMNRYFQPFYQPNECGKALCVRPDVMELDELYEFPEYSRDPTMYLALRNLILALWYTNCKEALTPQKCIPHIIVRGLVRIRCVQEVERILYFMTRKGLINTGVLTVAAGQHLLPKHYHNKSVLVVGAGPAGLAAARQLHNFGMKVTVLEAKDRIGGRVWDDKSFKGVVVGRGPQIVNGCINNPVALMCEQLGISMRKLGERCDLIQEGGRITDPTVDKRMDFHFNALLDVVSEWRKDKTLLQDVPLGEKIEEIYRAFVKESGIQFSELEGQVLQFHLSNLEYACGSSLHQVSARSWDHNEFFAQFAGDHTLLTPGYSTIIEKLAEGLDIRLKSPVQSIDYTGDEVQVTTTDGMGHSAQKVLVTVPLAILQRGAIQFNPPLSEKKMKAINSLGAGIIEKIALQFPYRFWDSKVQGADFFGHVPPSASQRGLFAVFYDMDSQQSVLMSVITGEAVASLRTMDDKQVLQQCMGILRELFKEQEIPEPTKYFVTRWSTEPWIQMAYSFVKTFGSGEAYDIIAEEIQGTVFFAGEATNRHFPQTVTGAYLSGVREASKIAAF

binding [1]: binds | binding [2]: binds
B3: PHF14 (protein, UniProt Q9D4H9 1-941)
chain: MDRSSKRRQVKPLAASLLEALDYDSSDDSDFKVGDASDSEGSGNGSEDPSKDSGEGSCSDSEENILEEELNEDIQVKEEQLKNSTEEIMPSDKQLIKMEKKEEEENGERPRKKKEKEKEKEKEREKDKEKATVSDSAAASAAGTTPATSPPAVTSPSVPTTTTTTTEEQVSEPKKWNLRRNRPLLDFVSMEELNAMDDYDSEDDNDWRPTVVKRKGRSASQKEGSDGDNEDDDDEGSGSEEDENDEGNDEDHSSPASEAGGKKKRSKVLSRNSADDEELTNDSLTLSQSKSNEDSLILEKSQNWSSQKMDHILICCVCLGDNSEDADEIIQCDNCGITVHEGCYGVDGESDSIMSSASENSTEPWFCDACKCGVSPSCELCPNQDGIFKETDAGRWVHIVCALYVPGVAFGDIDKLRPVTLTEMNYSKYGAKECSFCEDPRFARTGVCISCDAGMCRAYFHVTCAQKEGLLSEAAAEEDIADPFFAYCKQHADRLDRKWKRKNYLALQSYCKMSLQEREKQLSPEAQARINARLQQYRAKAELARSTRPQAWVPREKLPRPLTSSASAIRKLMRKAELMGISTDIFPVDNSDTSSSVDGRRKHKQPALTADFVNYYFERNMRMIQIQENMAEQKNIKDKLENEQEKLHVEYNKLCESLEELQNLNGKLRSEGQGIWALLGRITGQKLNVPAILRAPKERKPSKKEGGTQKTSALPTVLYSCGICKKNHDQHLLLLCDTCKLHYHLGCLDPPLTRMPRKTKNSYWQCSECDQAGSSDMEAEMAMETLPDGTKRSRRQIKEPVKFVPQDVPPEPKKIPIRNTRTRGRKRSFVPEEEKHEERVPRERRQRQSVLQKKPKAEDLRTECSTCKGTGDNENLVRCDECRLCYHFGCLDPPLKKSPKQTGYGWICQECDSSSSKEDENEAEKKNASQELSMEQKTPKK
